# Data as given in the supplement of paper PMC8728848.
# Some of the results follow.
# Columns and labels:
# Assay in all cases: glycan array binding signal (z-score within array); higher = stronger binding
# Details in all cases: glycan notation: IUPAC condensed, linker removed
# [1] = biological target: Neu5Ac(a2-6)Gal(b1-4)GlcNAc(b1-6)GalNAc
# Procedure, shortened: (§1)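 From the Consortium for Functional Glycomics database, 3228 arrays were curated, keeping only those whose protein sequence was available. Binding is given as a within-array Z-score averaged across arrays sharing a protein sequence and across linkers. Negative Z-scores can be read as non-binding.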
# [2] = biological target: Neu5Ac(a2-6)Gal(b1-4)GlcNAc(b1-6)[Gal(b1-3)GlcNAc(b1-3)]Gal(b1-4)Glc
# Procedure, shortened: as §1
# [3] = biological target: Neu5Ac(a2-6)Gal(b1-4)GlcNAc(b1-6)[Gal(b1-3)]GalNAc
# Procedure, shortened: as §1
# [4] = biological target: Neu5Ac(a2-6)Gal(b1-4)GlcNAc6S
# Procedure, shortened: as §1
# Neu5Ac(a2-6)GalNAc = biological target: Neu5Ac(a2-6)GalNAc
# Procedure, shortened: as §1
# [5] = biological target: Neu5Ac(a2-6)GalNAc(b1-4)GlcNAc
# Procedure, shortened: as §1
# [6] = biological target: Neu5Ac(a2-6)GalNAc(b1-4)GlcNAc6S
# Procedure, shortened: as §1
# [7] = biological target: Neu5Ac(a2-6)GlcNAc(b1-4)GlcNAc
# Procedure, shortened: as §1
# [8] = biological target: Neu5Ac(a2-6)GlcNAc(b1-4)GlcNAc(b1-4)GlcNAc
# Procedure, shortened: as §1
# Neu5Ac(a2-8)Neu5Ac = biological target: Neu5Ac(a2-8)Neu5Ac
# Procedure, shortened: as §1
# [9] = biological target: Neu5Ac(a2-8)Neu5Ac(a2-3)Gal(b1-3)GalNAc(b1-4)[Neu5Ac(a2-3)]Gal(b1-4)Glc
# Procedure, shortened: as §1
# [10] = biological target: Neu5Ac(a2-8)Neu5Ac(a2-3)Gal(b1-3)GalNAc(b1-4)[Neu5Ac(a2-8)Neu5Ac(a2-3)]Gal(b1-4)Glc
# Procedure, shortened: as §1
# [11] = biological target: Neu5Ac(a2-8)Neu5Ac(a2-3)Gal(b1-4)Glc
# Procedure, shortened: as §1
# [12] = biological target: Neu5Ac(a2-8)Neu5Ac(a2-3)Gal(b1-4)GlcNAc
# Procedure, shortened: as §1
# [13] = biological target: Neu5Ac(a2-8)Neu5Ac(a2-3)[Gal(b1-3)GalNAc(b1-4)]Gal(b1-4)Glc
# Procedure, shortened: as §1
# [14] = biological target: Neu5Ac(a2-8)Neu5Ac(a2-3)[GalNAc(b1-4)]Gal(b1-4)Glc
# Procedure, shortened: as §1
# [15] = biological target: Neu5Ac(a2-8)Neu5Ac(a2-8)Neu5Ac
# Procedure, shortened: as §1
# [16] = biological target: Neu5Ac(a2-8)Neu5Ac(a2-8)Neu5Ac(a2-3)Gal(b1-4)Glc
# Procedure, shortened: as §1
# [17] = biological target: Neu5Ac(a2-8)Neu5Ac(a2-8)Neu5Ac(a2-3)[Gal(b1-3)GalNAc(b1-4)]Gal(b1-4)Glc
# Procedure, shortened: as §1
# [18] = biological target: Neu5Ac(a2-8)Neu5Ac(a2-8)Neu5Ac(a2-3)[GalNAc(b1-4)]Gal(b1-4)Glc
# Procedure, shortened: as §1
# [19] = biological target: Neu5Ac(a2-8)Neu5Ac(a2-8)Neu5Ac(a2-8)Neu5Ac(a2-3)[GalNAc(b1-4)]Gal(b1-4)Glc
# Procedure, shortened: as §1
# [20] = biological target: Neu5Ac(a2-8)Neu5Gc(a2-3)Gal(b1-4)GlcNAc
# Procedure, shortened: as §1
# [21] = biological target: Neu5Ac(b2-6)Gal(b1-4)GlcNAc
# Procedure, shortened: as §1
# Neu5Ac(b2-6)GalNAc = biological target: Neu5Ac(b2-6)GalNAc
# Procedure, shortened: as §1
# [22] = biological target: Neu5Ac9Ac(a2-3)Gal(b1-3)GlcNAc
# Procedure, shortened: as §1
# [23] = biological target: Neu5Ac9Ac(a2-3)Gal(b1-4)GlcNAc
# Procedure, shortened: as §1
# [24] = biological target: Neu5Ac9Ac(a2-6)Gal(b1-4)GlcNAc
# Procedure, shortened: as §1
# [25] = biological target: Neu5Gc(a2-3)Gal(b1-3)GlcNAc
# Procedure, shortened: as §1
# [26] = biological target: Neu5Gc(a2-3)Gal(b1-3)[Fuc(a1-4)]GlcNAc
# Procedure, shortened: as §1
# Neu5Gc(a2-3)Gal(b1-4)Glc = biological target: Neu5Gc(a2-3)Gal(b1-4)Glc
# Procedure, shortened: as §1
# [27] = biological target: Neu5Gc(a2-3)Gal(b1-4)GlcNAc
# Procedure, shortened: as §1
# [28] = biological target: Neu5Gc(a2-3)Gal(b1-4)GlcNAc(b1-3)Gal(b1-4)GlcNAc(b1-2)Man(a1-3)[Neu5Gc(a2-3)Gal(b1-4)GlcNAc(b1-3)Gal(b1-4)GlcNAc(b1-2)Man(a1-6)]Man(b1-4)GlcNAc(b1-4)GlcNAc
# Procedure, shortened: as §1
# [29] = biological target: Neu5Gc(a2-3)Gal(b1-4)[Fuc(a1-3)]GlcNAc
# Procedure, shortened: as §1
# [30] = biological target: Neu5Gc(a2-6)Gal(b1-4)GlcNAc
# Procedure, shortened: as §1
# Neu5Gc(a2-6)GalNAc = biological target: Neu5Gc(a2-6)GalNAc
# Procedure, shortened: as §1
# [31] = biological target: Neu5Gc(a2-8)Neu5Ac(a2-3)Gal(b1-4)GlcNAc
# Procedure, shortened: as §1
# [32] = biological target: Neu5Gc(a2-8)Neu5Gc(a2-3)Gal(b1-4)GlcNAc
# Procedure, shortened: as §1
# [33] = biological target: Neu5Gc(a2-8)Neu5Gc(a2-3)Gal(b1-4)GlcNAc(b1-3)Gal(b1-4)GlcNAc
# Procedure, shortened: as §1
binder,measurement,setting,value
his-Lectin-24A (Drosophila melanogaster) (protein) MFRLSVLVLNLLLVSHEFSAGTAKIEIQPLPALCNGYCFPTLKPVMEYVAIHQDKWNTCTEILANEARKDQIQLNIQLDALKADVSNIKASQLSKDEKLDRMEREQFAMHESLETINRYLTVKLDRTKLQLEAIKNTMDYMKAQMDGYFSAINGVQCLQPGFEKIGDRYFYIEEDVELNWLDAQAKCRRMGGHLASIKTKQEFDAIVEKLDDSKSYFLGVNENTKTGDFVSAASGKSCLYHEWGPGEPHHNNDQERCVSILRKLMHVGNCTYEKRFICQYGI,glycan array binding signal (z-score),[1],-0.515
same,glycan array binding signal (z-score),[2],0.282
same,glycan array binding signal (z-score),[3],0.152
same,glycan array binding signal (z-score),[4],-0.082
same,glycan array binding signal (z-score),Neu5Ac(a2-6)GalNAc,-1.17
same,glycan array binding signal (z-score),[5],-1.81
same,glycan array binding signal (z-score),[6],0.466
same,glycan array binding signal (z-score),[7],1.01
same,glycan array binding signal (z-score),[8],-0.648
same,glycan array binding signal (z-score),Neu5Ac(a2-8)Neu5Ac,-0.128
same,glycan array binding signal (z-score),[9],2.87
same,glycan array binding signal (z-score),[10],0.393
same,glycan array binding signal (z-score),[11],-0.828
same,glycan array binding signal (z-score),[12],-0.208
same,glycan array binding signal (z-score),[13],0.25
same,glycan array binding signal (z-score),[14],-0.653
same,glycan array binding signal (z-score),[15],0.094
same,glycan array binding signal (z-score),[16],2.02
same,glycan array binding signal (z-score),[17],0.095
same,glycan array binding signal (z-score),[18],0.981
same,glycan array binding signal (z-score),[19],0.214
same,glycan array binding signal (z-score),[20],0.038
same,glycan array binding signal (z-score),[21],-0.192
same,glycan array binding signal (z-score),Neu5Ac(b2-6)GalNAc,-0.412
same,glycan array binding signal (z-score),[22],-0.873
same,glycan array binding signal (z-score),[23],-1.15
same,glycan array binding signal (z-score),[24],0.481
same,glycan array binding signal (z-score),[25],-1.69
same,glycan array binding signal (z-score),[26],-0.723
same,glycan array binding signal (z-score),Neu5Gc(a2-3)Gal(b1-4)Glc,-1.15
same,glycan array binding signal (z-score),[27],-0.377
same,glycan array binding signal (z-score),[28],0.727
same,glycan array binding signal (z-score),[29],-0.231
same,glycan array binding signal (z-score),[30],-0.588
same,glycan array binding signal (z-score),Neu5Gc(a2-6)GalNAc,-1.52
same,glycan array binding signal (z-score),[31],-0.218
same,glycan array binding signal (z-score),[32],-0.569
same,glycan array binding signal (z-score),[33],-0.999

# For convenience, some entries already given:
binder,measurement,setting,value
his-Lectin-24A (Drosophila melanogaster) (protein) MFRLSVLVLNLLLVSHEFSAGTAKIEIQPLPALCNGYCFPTLKPVMEYVAIHQDKWNTCTEILANEARKDQIQLNIQLDALKADVSNIKASQLSKDEKLDRMEREQFAMHESLETINRYLTVKLDRTKLQLEAIKNTMDYMKAQMDGYFSAINGVQCLQPGFEKIGDRYFYIEEDVELNWLDAQAKCRRMGGHLASIKTKQEFDAIVEKLDDSKSYFLGVNENTKTGDFVSAASGKSCLYHEWGPGEPHHNNDQERCVSILRKLMHVGNCTYEKRFICQYGI,glycan array binding signal (z-score),Neu5Ac(a2-8)Neu5Ac,-0.128
same,glycan array binding signal (z-score),[9],2.87
same,glycan array binding signal (z-score),[10],0.393
